{"source": "PubChem BioAssay AID493014", "about": "(National Center for Advancing Translational Sciences (NCATS), 2011)", "test": "qHTS Assay to Find Inhibitors of Chronic Active B-Cell Receptor Signaling", "conditions": "ABC-DLBCL IkBa-CBG/CBR reporter, luminescence ratio (green luciferase fused to IkBa over red control in TMD8 lymphoma cells), 4 h", "method_in_brief": "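Cell line TMD8 (human ABC DLBCL), stably expressing tet-inducible CBG68-IkBa fusion and CBR; IMDM/0.5% FBS; cpd up to 46 uM; dox induction, 4 h, 37C/5% CO2; dual luminescence; green/red ratio; MG132 control.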", "key": {"[1]": {"conditions": "measured here: CBR red luminescence, cell number"}}, "note": "This is one part of the list. The main result of the screen is listed elsewhere. These columns were measured beside it and carry no call. The list favours compounds with an active or inconclusive main result. The note in brackets gives the kind of curve behind each potency; many fits are weak.", "data": [{"smiles": "O=c1/c(=C\\c2cccc(O)c2)sc2nc(-c3ccccc3)c(-c3ccccc3)n12", "values": [{"measurement": "AC50", "setting": "[1]", "value": "22.4 µM [rising, single point]"}]}, {"smiles": "COC(=O)Cc1ccc(OCc2ccc(Cl)nc2)cc1", "values": [{"measurement": "AC50", "setting": "[1]", "value": "2.24 µM [rising, partial curve, poor fit]"}]}, {"smiles": "CC(=O)Nc1ccc(S(=O)(=O)Nc2nc3ccc([N+](=O)[O-])cc3s2)cc1", "values": [{"measurement": "AC50", "setting": "[1]", "value": "2.82 µM [falling, full curve]"}]}, {"smiles": "COc1cc(/C=N/NC(=O)c2ccoc2C)ccc1O", "values": [{"measurement": "AC50", "setting": "[1]", "value": "23.1 µM [falling, partial curve, poor fit]"}]}, {"smiles": "Cc1nonc1NC(=O)CSc1nnc(-c2ccoc2C)n1CC(C)C", "values": [{"measurement": "AC50", "setting": "[1]", "value": "35.5 µM [falling, single point]"}]}, {"smiles": "COc1ccc(NC2CCCN(C(=O)c3ccc4[nH]c(C)c(C)c4c3)C2)cc1OC", "note": "(stereo not drawn)", "values": [{"measurement": "AC50", "setting": "[1]", "value": "3.98 µM [rising, full curve]"}]}, {"smiles": "Cc1cc(C(=O)Nc2ccc3ccccc3c2)c(C)o1", "values": [{"measurement": "AC50", "setting": "[1]", "value": "10 µM [falling, partial curve]"}]}, {"smiles": "CC(=O)N/N=C(/C)c1ccc(NC(=O)c2csc(C)c2C)cc1", "values": [{"measurement": "AC50", "setting": "[1]", "value": "25.1 µM [falling, single point]"}]}, {"smiles": "C[C@]12C(=O)N(c3ccccc3)C(=O)N1[C@H]1c3ccccc3OC[C@@H]1[C@H]2c1ccccc1", "values": [{"measurement": "AC50", "setting": "[1]", "value": "9.2 µM [falling, partial curve]"}]}, {"smiles": "O=C(Cc1ccsc1)NNC(=O)c1ccccc1O", "values": [{"measurement": "AC50", "setting": "[1]", "value": "13 µM [falling, partial curve]"}]}, {"smiles": "Cc1ccc(C(=O)c2c[nH]c(C(=O)NCc3cccnc3)c2)cc1", "values": [{"measurement": "AC50", "setting": "[1]", "value": "23.1 µM [falling, single point]"}]}, {"smiles": "CCCCOc1ccc(/C=C2/Sc3ccccc3C2=O)cc1", "values": [{"measurement": "AC50", "setting": "[1]", "value": "13 µM [falling, partial curve]"}]}, {"smiles": "CCOC(=O)/C(=N/Nc1ccccc1)c1csc(Nc2ccccc2)n1", "values": [{"measurement": "AC50", "setting": "[1]", "value": "13 µM [falling, single point]"}]}, {"smiles": "COc1cc(C2C(C#N)=C(N)N(N(C)C)C3=C2C(=O)CCC3)cc(OC)c1OC", "note": "(stereo not drawn)", "values": [{"measurement": "AC50", "setting": "[1]", "value": "22.4 µM [rising, single point]"}]}, {"smiles": "COc1ccc(-c2c(-c3ccc(OCC(=O)NN)cc3O)n[nH]c2C)cc1", "values": [{"measurement": "AC50", "setting": "[1]", "value": "11.2 µM [falling, single point]"}]}, {"smiles": "COc1cccc(-c2sc3ccc(OC)cc3c2-c2ccc(OCCN3CCCC3)cc2)c1", "values": [{"measurement": "AC50", "setting": "[1]", "value": "29.1 µM [falling, single point]"}]}, {"smiles": "CCc1nnc(NC(=O)c2oc3ccc(Br)cc3c2C)s1", "values": [{"measurement": "AC50", "setting": "[1]", "value": "16.4 µM [rising, partial curve]"}]}, {"smiles": "CC1CCCC(C)N1C(=O)COc1ccc(C(=O)N/N=C/c2ccc(C(=O)O)cc2)cc1", "note": "(stereo not drawn)", "values": [{"measurement": "AC50", "setting": "[1]", "value": "10 µM [falling, partial curve]"}]}, {"smiles": "CC[n+]1c(/C=C2\\C=C(C)CC(C)(C)C2)sc2ccccc21", "values": [{"measurement": "AC50", "setting": "[1]", "value": "35.5 µM [falling, single point]"}]}, {"smiles": "O=C(/C=C/c1ccc(F)cc1)NCc1cccs1", "values": [{"measurement": "AC50", "setting": "[1]", "value": "13 µM [falling, partial curve]"}]}, {"smiles": "O=C(c1ccccc1)c1cnc(-c2ccccc2)s1", "values": [{"measurement": "AC50", "setting": "[1]", "value": "2.82 µM [falling, full curve]"}]}, {"smiles": "CCc1ccc(C(=O)Cn2cnc3cc([N+](=O)[O-])ccc3c2=O)cc1", "values": [{"measurement": "AC50", "setting": "[1]", "value": "6.31 µM [rising, partial curve, poor fit]"}]}, {"smiles": "CCC1(c2ccc(F)cc2)NC(=O)N(CC(=O)Nc2ccc(C)c(S(=O)(=O)N3CCOCC3)c2)C1=O", "note": "(stereo not drawn)", "values": [{"measurement": "AC50", "setting": "[1]", "value": "11.2 µM [falling, single point]"}]}, {"smiles": "O=C(Nc1ccc2c(c1)OCO2)C(=O)c1c[nH]c2ccccc12", "values": [{"measurement": "AC50", "setting": "[1]", "value": "3.98 µM [falling, full curve]"}]}, {"smiles": "Cc1ccc(S(=O)(=O)Cc2cccc(C(=O)N3CCOCC3)c2)cc1", "values": [{"measurement": "AC50", "setting": "[1]", "value": "0.92 µM [falling, full curve, poor fit]"}]}, {"smiles": "Cc1cccc(NS(=O)(=O)c2cc(C(=O)N3CCOCC3)ccc2Cl)c1", "values": [{"measurement": "AC50", "setting": "[1]", "value": "0.112 µM [rising, full curve, poor fit]"}]}, {"smiles": "Cc1cc(CC(C)C)n(-c2nc3ccccc3c(=O)n2OCc2ccccc2)n1", "values": [{"measurement": "AC50", "setting": "[1]", "value": "6.31 µM [rising, single point]"}]}, {"smiles": "CC(=O)CC1OC(=O)C(Br)=C1NCc1ccccc1", "note": "(stereo not drawn)", "values": [{"measurement": "AC50", "setting": "[1]", "value": "28.2 µM [falling, single point]"}]}, {"smiles": "Cc1cccnc1Nc1nc(-c2ccc(O)cc2)cs1", "values": [{"measurement": "AC50", "setting": "[1]", "value": "16.4 µM [falling, partial curve, poor fit]"}]}, {"smiles": "O=C(C1COc2ccccc2O1)N1CCN(c2ccccc2)CC1", "note": "(stereo not drawn)", "values": [{"measurement": "AC50", "setting": "[1]", "value": "6.31 µM [rising, partial curve, poor fit]"}]}, {"smiles": "CCC(CC)C(=O)Nc1cccc(C(=O)NCCc2ccccc2)c1", "values": [{"measurement": "AC50", "setting": "[1]", "value": "14.1 µM [falling, single point]"}]}, {"smiles": "O=C(Nc1ccc(N2CCOCC2)nc1)c1ccc(F)cc1", "values": [{"measurement": "AC50", "setting": "[1]", "value": "16.4 µM [falling, partial curve]"}]}, {"smiles": "O=C(COC(=O)c1cncc(Br)c1)NCc1cccs1", "values": [{"measurement": "AC50", "setting": "[1]", "value": "2.31 µM [rising, partial curve, poor fit]"}]}, {"smiles": "CC1CC(C)CN(c2ncnc3c2cnn3-c2ccc(Cl)cc2)C1", "note": "(stereo not drawn)", "values": [{"measurement": "AC50", "setting": "[1]", "value": "9.2 µM [rising, partial curve, poor fit]"}]}, {"smiles": "CC(C)C(=O)Nc1cc(S(=O)(=O)Nc2cccc(Cl)c2)ccc1Cl", "values": [{"measurement": "AC50", "setting": "[1]", "value": "14.6 µM [falling, partial curve]"}]}, {"smiles": "O=C(NCCCN1CCOCC1)c1cc(-c2ccc(Cl)cc2)on1", "values": [{"measurement": "AC50", "setting": "[1]", "value": "2.91 µM [falling, full curve, poor fit]"}]}, {"smiles": "CCOC(=O)C(C)Sc1nc2c(c(=O)[nH]c(=O)n2C)n1Cc1ccc(Cl)cc1", "note": "(stereo not drawn)", "values": [{"measurement": "AC50", "setting": "[1]", "value": "3.66 µM [rising, single point]"}]}, {"smiles": "C=CCc1cccc2cc(C(=O)OCC)c(=O)oc12", "values": [{"measurement": "AC50", "setting": "[1]", "value": "18.4 µM [rising, single point]"}]}, {"smiles": "COc1ccc2c(c1OC)C(=O)N1C2SC[C@H]1C(=O)NC1CCCC1", "note": "(stereo partly drawn)", "values": [{"measurement": "AC50", "setting": "[1]", "value": "1.26 µM [rising, full curve]"}]}, {"smiles": "CC1CCc2nc(NC(=O)C3CCCO3)sc2C1", "note": "(stereo not drawn)", "values": [{"measurement": "AC50", "setting": "[1]", "value": "14.6 µM [falling, single point]"}]}, {"smiles": "OCC#Cc1ncc(C(F)(F)F)cc1Cl", "values": [{"measurement": "AC50", "setting": "[1]", "value": "10 µM [falling, partial curve, poor fit]"}, {"measurement": "AC50", "setting": "measured here: IkBa-CBG green luminescence", "value": "14.1 µM [rising, single point]"}]}, {"smiles": "CN1C(=O)C2C=CC1C1C(=O)N(c3ccccc3)C(=O)C21", "note": "(stereo not drawn)", "values": [{"measurement": "AC50", "setting": "[1]", "value": "0.112 µM [falling, full curve, poor fit]"}]}]}
